Weaker means in comparison with the reference protein, sequence or condition of that experiment. Protein sequences can lack the tags named with them. The exact form of at least one protein or probe is not confirmed. A negative result means that nothing was seen under these conditions.
Target: T1, Serum response factor (SRF) (UniProt D3ZHH8)
T1 sequence (looked up, limits assumed): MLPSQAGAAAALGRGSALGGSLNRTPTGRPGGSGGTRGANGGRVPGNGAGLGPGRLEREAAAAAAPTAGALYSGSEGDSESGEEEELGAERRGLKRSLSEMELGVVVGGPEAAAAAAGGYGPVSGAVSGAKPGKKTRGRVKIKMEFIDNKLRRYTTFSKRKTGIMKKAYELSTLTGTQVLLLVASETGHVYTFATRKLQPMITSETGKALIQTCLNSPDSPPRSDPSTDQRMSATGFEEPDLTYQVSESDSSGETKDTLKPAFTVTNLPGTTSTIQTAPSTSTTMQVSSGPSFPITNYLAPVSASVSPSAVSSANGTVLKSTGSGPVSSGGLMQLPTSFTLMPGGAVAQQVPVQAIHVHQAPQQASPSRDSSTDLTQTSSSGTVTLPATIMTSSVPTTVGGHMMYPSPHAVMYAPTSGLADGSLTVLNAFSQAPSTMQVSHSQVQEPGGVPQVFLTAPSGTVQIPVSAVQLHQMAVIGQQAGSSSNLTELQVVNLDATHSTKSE
Assay: EMSA
Conditions: synthetic protein

“AATAATTAAA (double strand) [Intronic CArG mut]”: no binding (CITED previously shown to abolish SRF binding in gel shift, only mutated 10-mer core printed).
AATTGTTTAA (double strand) [CArG A mut]: no binding (CITED previously shown to abolish SRF binding in gel shift, only mutated 10-mer core printed, variant of CArG A (SM alpha-actin 5' promoter)).
CCCTATATCA (double strand) [CArG B mut]: no binding (CITED previously shown to abolish SRF binding in gel shift, only mutated 10-mer core printed, variant of CArG B (SM alpha-actin 5' promoter)).
“GAGGTCCCTATATGGTTGTG (double strand) [CArG B (SM alpha-actin 5' promoter)]”: binds more weakly (binds SRF, less avidly than intronic CArG, same buffer, label: 32P end label).
“TTGCTCCTTGTTTGGGAAGC (double strand) [CArG A (SM alpha-actin 5' promoter)]”: binds more weakly (binds SRF poorly, less avidly than intronic CArG, same buffer, label: 32P end label).

From patent publication US6825035, “Compositions and methods for modulating expression within smooth muscle cells” (Setagon, Inc.)
